Experimental data taken from publication PMC11095456.
No constants are given. Whether binding was seen depends on the method and setting. Some entries that bind do so weakly or less than the wild type.

Target: T1, ZEB2 MAPPIT construct (UniProt O60315)
T1 sequence: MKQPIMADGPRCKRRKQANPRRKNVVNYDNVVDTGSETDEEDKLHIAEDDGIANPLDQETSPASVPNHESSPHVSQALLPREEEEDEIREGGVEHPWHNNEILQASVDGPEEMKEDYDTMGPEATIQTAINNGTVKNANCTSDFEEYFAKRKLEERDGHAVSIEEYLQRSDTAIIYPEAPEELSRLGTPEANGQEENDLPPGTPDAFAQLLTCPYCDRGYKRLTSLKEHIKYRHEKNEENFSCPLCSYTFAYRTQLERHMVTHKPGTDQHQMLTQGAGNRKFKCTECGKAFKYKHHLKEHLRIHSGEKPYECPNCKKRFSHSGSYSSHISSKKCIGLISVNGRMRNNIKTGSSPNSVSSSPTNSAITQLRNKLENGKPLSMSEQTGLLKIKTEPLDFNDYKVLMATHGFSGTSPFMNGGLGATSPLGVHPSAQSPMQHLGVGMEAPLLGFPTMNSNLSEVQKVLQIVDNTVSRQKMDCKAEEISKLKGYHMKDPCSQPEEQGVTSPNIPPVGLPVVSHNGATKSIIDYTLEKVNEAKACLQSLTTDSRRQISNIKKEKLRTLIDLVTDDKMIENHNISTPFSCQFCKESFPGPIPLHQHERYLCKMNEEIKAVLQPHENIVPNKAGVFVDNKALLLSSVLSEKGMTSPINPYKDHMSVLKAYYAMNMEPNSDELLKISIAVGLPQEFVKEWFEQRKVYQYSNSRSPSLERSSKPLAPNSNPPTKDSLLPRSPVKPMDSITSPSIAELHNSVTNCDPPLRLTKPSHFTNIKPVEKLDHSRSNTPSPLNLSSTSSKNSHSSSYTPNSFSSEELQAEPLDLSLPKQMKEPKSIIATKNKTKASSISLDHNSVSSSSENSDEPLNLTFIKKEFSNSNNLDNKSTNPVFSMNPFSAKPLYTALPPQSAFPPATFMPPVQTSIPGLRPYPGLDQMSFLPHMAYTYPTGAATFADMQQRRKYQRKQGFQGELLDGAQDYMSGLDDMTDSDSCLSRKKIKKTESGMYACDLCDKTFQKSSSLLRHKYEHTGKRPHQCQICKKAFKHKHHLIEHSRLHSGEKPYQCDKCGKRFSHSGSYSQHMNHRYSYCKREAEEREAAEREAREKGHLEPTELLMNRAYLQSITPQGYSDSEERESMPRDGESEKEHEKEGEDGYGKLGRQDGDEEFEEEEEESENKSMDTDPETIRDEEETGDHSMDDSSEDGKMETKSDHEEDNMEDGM
Test: two-hybrid; MAPPIT in HEK293T as in a6, with the 4× PLDLS inhibitor or the 4× PLASS control expressed as competitor

binding: binds
Substance: CTBP2 MAPPIT prey, wild type (from UniProt P56545 1-445)
